Experiment [1] concerns the target T1, NELF-E subunit of the Negative ELongation Factor (NELF) (Drosophila (endogenous in S2 cells)) (UniProt P92204).
T1 sequence: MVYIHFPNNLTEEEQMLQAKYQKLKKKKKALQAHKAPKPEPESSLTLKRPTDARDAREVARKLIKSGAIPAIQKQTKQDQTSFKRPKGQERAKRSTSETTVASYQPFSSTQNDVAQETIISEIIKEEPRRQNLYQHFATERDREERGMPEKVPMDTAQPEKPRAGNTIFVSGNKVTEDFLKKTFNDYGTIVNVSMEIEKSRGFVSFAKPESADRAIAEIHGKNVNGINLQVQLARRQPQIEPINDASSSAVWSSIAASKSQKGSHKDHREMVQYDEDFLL
In words: immunodepletion of nuclear extract; depletion of NELF-A, NELF-B or NELF-E with specific antibodies from the nuclear protein extract of uninduced Drosophila S2 cells; what is left in the extract read by Western blot; IgG depletion as control. In general terms: In western blotting, separated proteins are transferred to a membrane and probed.

The chains behind the UniProt entries cited, without tags or fusion partners.
UniProt Q9Y113: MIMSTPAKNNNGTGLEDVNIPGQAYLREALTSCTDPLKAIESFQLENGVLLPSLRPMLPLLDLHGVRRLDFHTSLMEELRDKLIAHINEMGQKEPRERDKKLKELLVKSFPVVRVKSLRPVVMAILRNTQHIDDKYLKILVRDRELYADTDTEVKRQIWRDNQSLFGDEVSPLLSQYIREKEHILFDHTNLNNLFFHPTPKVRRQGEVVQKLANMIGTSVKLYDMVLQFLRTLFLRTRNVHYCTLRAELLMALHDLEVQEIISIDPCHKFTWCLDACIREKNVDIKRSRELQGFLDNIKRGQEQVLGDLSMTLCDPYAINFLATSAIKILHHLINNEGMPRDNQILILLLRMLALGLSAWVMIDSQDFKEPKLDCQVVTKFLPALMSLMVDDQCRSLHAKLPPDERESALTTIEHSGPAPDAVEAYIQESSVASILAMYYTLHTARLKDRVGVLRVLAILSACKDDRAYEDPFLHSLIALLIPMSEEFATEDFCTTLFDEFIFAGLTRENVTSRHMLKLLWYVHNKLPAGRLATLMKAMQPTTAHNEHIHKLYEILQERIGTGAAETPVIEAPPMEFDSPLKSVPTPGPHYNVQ

Experiment [2] has as its target NELF-B subunit of the Negative ELongation Factor (NELF) (Drosophila (endogenous in S2 cells)) (UniProt Q9Y113). Described as above.
The target of experiment [3] is T2, ecdysone receptor (EcR) (Drosophila (endogenous in S2 cells)) (UniProt P34021).
T2 sequence: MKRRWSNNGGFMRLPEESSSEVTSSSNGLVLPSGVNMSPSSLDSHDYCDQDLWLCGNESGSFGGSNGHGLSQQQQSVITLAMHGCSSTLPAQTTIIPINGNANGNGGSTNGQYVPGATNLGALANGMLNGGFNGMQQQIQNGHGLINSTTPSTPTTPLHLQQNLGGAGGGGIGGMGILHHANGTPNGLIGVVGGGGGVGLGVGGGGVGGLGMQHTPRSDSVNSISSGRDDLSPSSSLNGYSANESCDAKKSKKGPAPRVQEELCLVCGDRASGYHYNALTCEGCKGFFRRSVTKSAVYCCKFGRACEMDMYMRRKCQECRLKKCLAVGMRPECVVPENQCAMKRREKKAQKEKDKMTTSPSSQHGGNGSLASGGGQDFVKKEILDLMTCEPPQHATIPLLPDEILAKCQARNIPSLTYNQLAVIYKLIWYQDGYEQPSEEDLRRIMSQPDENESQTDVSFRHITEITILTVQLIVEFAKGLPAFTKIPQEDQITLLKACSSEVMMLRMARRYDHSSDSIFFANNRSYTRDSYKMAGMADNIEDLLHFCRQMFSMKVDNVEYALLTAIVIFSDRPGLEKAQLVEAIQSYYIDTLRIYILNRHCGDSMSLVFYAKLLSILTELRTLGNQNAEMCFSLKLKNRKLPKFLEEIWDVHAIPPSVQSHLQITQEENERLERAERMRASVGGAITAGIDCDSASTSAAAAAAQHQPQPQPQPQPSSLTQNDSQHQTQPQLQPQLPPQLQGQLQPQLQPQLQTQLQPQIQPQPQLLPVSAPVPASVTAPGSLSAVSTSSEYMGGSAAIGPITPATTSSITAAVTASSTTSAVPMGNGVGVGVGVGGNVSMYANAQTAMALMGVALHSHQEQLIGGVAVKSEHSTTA
As to the kind of experiment: co-IP; immunoprecipitation with antibodies against NELF-A, NELF-B, NELF-E and EcR from nuclear protein extract of uninduced Drosophila S2 cells from which NELF-B had been depleted; Western blot.

Experiment [4] concerns the target T2, ecdysone receptor (EcR) (Drosophila (endogenous in S2 cells)). In words: co-IP; immunoprecipitation with antibodies against NELF-A, NELF-B, NELF-E and EcR from nuclear protein extracts of 1-h 20E- and DMSO-treated Drosophila S2 cells; Western blot; serum of non-immunized rabbits as negative control.
Experiment [5] addresses T3, NELF-A subunit of the Negative ELongation Factor (NELF) (Drosophila (endogenous in S2 cells)) (UniProt Q86NP2).
T3 sequence: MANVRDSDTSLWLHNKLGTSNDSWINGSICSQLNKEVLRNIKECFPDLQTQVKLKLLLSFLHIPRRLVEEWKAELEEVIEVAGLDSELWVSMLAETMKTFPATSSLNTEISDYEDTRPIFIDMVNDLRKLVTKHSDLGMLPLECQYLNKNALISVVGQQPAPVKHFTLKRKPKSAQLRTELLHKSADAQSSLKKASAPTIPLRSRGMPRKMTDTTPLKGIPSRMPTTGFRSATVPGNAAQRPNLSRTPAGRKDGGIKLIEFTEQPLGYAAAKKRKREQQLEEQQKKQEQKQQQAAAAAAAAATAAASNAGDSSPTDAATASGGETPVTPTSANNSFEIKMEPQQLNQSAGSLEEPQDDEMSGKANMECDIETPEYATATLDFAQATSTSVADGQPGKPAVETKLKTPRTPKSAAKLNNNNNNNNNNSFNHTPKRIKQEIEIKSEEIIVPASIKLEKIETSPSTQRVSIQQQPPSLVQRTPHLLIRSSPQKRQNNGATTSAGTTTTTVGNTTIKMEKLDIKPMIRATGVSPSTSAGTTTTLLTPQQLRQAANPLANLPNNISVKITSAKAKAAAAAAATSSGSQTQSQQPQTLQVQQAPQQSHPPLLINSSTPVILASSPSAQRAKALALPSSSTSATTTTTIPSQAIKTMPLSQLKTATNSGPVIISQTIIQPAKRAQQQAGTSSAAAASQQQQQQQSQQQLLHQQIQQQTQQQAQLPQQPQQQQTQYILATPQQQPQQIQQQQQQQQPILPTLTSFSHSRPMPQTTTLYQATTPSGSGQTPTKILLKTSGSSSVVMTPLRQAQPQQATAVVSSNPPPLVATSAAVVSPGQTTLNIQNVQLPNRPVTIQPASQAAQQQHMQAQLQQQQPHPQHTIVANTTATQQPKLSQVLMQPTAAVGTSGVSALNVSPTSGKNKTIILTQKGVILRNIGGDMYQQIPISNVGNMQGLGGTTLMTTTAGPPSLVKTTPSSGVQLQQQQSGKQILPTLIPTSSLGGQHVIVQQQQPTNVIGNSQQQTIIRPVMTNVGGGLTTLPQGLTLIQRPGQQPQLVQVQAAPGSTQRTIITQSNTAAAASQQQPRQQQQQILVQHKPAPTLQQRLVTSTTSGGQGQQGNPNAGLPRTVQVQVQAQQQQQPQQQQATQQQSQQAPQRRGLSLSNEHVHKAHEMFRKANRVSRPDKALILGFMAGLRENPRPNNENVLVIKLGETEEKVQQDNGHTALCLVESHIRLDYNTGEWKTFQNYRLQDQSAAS
Described as above.

Results are given in words; binding and its absence hold for the method and conditions named. For part of these data: Binding seen in cells or lysates may run through a third protein. Some results given as binding are weak or reduced against the parent protein; the word gives no strength.

For “NELF-B subunit of the Negative ELongation Factor (NELF) (from UniProt Q9Y113 1-594)”, the binding entry in experiment [1] is on record as “binds”.

B1: NELF-E subunit of the Negative ELongation Factor (NELF) (protein, UniProt P92204 1-280)
chain: MVYIHFPNNLTEEEQMLQAKYQKLKKKKKALQAHKAPKPEPESSLTLKRPTDARDAREVARKLIKSGAIPAIQKQTKQDQTSFKRPKGQERAKRSTSETTVASYQPFSSTQNDVAQETIISEIIKEEPRRQNLYQHFATERDREERGMPEKVPMDTAQPEKPRAGNTIFVSGNKVTEDFLKKTFNDYGTIVNVSMEIEKSRGFVSFAKPESADRAIAEIHGKNVNGINLQVQLARRQPQIEPINDASSSAVWSSIAASKSQKGSHKDHREMVQYDEDFLL
Turning to B1, the binding entry in experiment [2] is reported as “binds”.

B2: NELF-A subunit of the Negative ELongation Factor (NELF) (protein, UniProt Q86NP2 1-1251)
chain: MANVRDSDTSLWLHNKLGTSNDSWINGSICSQLNKEVLRNIKECFPDLQTQVKLKLLLSFLHIPRRLVEEWKAELEEVIEVAGLDSELWVSMLAETMKTFPATSSLNTEISDYEDTRPIFIDMVNDLRKLVTKHSDLGMLPLECQYLNKNALISVVGQQPAPVKHFTLKRKPKSAQLRTELLHKSADAQSSLKKASAPTIPLRSRGMPRKMTDTTPLKGIPSRMPTTGFRSATVPGNAAQRPNLSRTPAGRKDGGIKLIEFTEQPLGYAAAKKRKREQQLEEQQKKQEQKQQQAAAAAAAAATAAASNAGDSSPTDAATASGGETPVTPTSANNSFEIKMEPQQLNQSAGSLEEPQDDEMSGKANMECDIETPEYATATLDFAQATSTSVADGQPGKPAVETKLKTPRTPKSAAKLNNNNNNNNNNSFNHTPKRIKQEIEIKSEEIIVPASIKLEKIETSPSTQRVSIQQQPPSLVQRTPHLLIRSSPQKRQNNGATTSAGTTTTTVGNTTIKMEKLDIKPMIRATGVSPSTSAGTTTTLLTPQQLRQAANPLANLPNNISVKITSAKAKAAAAAAATSSGSQTQSQQPQTLQVQQAPQQSHPPLLINSSTPVILASSPSAQRAKALALPSSSTSATTTTTIPSQAIKTMPLSQLKTATNSGPVIISQTIIQPAKRAQQQAGTSSAAAASQQQQQQQSQQQLLHQQIQQQTQQQAQLPQQPQQQQTQYILATPQQQPQQIQQQQQQQQPILPTLTSFSHSRPMPQTTTLYQATTPSGSGQTPTKILLKTSGSSSVVMTPLRQAQPQQATAVVSSNPPPLVATSAAVVSPGQTTLNIQNVQLPNRPVTIQPASQAAQQQHMQAQLQQQQPHPQHTIVANTTATQQPKLSQVLMQPTAAVGTSGVSALNVSPTSGKNKTIILTQKGVILRNIGGDMYQQIPISNVGNMQGLGGTTLMTTTAGPPSLVKTTPSSGVQLQQQQSGKQILPTLIPTSSLGGQHVIVQQQQPTNVIGNSQQQTIIRPVMTNVGGGLTTLPQGLTLIQRPGQQPQLVQVQAAPGSTQRTIITQSNTAAAASQQQPRQQQQQILVQHKPAPTLQQRLVTSTTSGGQGQQGNPNAGLPRTVQVQVQAQQQQQPQQQQATQQQSQQAPQRRGLSLSNEHVHKAHEMFRKANRVSRPDKALILGFMAGLRENPRPNNENVLVIKLGETEEKVQQDNGHTALCLVESHIRLDYNTGEWKTFQNYRLQDQSAAS
Consider B2, for which the binding result in experiment [1], in experiment [3] and in experiment [4] was “binds” each time.

B3: ecdysone receptor (EcR) (receptor, UniProt P34021 1-878)
chain: MKRRWSNNGGFMRLPEESSSEVTSSSNGLVLPSGVNMSPSSLDSHDYCDQDLWLCGNESGSFGGSNGHGLSQQQQSVITLAMHGCSSTLPAQTTIIPINGNANGNGGSTNGQYVPGATNLGALANGMLNGGFNGMQQQIQNGHGLINSTTPSTPTTPLHLQQNLGGAGGGGIGGMGILHHANGTPNGLIGVVGGGGGVGLGVGGGGVGGLGMQHTPRSDSVNSISSGRDDLSPSSSLNGYSANESCDAKKSKKGPAPRVQEELCLVCGDRASGYHYNALTCEGCKGFFRRSVTKSAVYCCKFGRACEMDMYMRRKCQECRLKKCLAVGMRPECVVPENQCAMKRREKKAQKEKDKMTTSPSSQHGGNGSLASGGGQDFVKKEILDLMTCEPPQHATIPLLPDEILAKCQARNIPSLTYNQLAVIYKLIWYQDGYEQPSEEDLRRIMSQPDENESQTDVSFRHITEITILTVQLIVEFAKGLPAFTKIPQEDQITLLKACSSEVMMLRMARRYDHSSDSIFFANNRSYTRDSYKMAGMADNIEDLLHFCRQMFSMKVDNVEYALLTAIVIFSDRPGLEKAQLVEAIQSYYIDTLRIYILNRHCGDSMSLVFYAKLLSILTELRTLGNQNAEMCFSLKLKNRKLPKFLEEIWDVHAIPPSVQSHLQITQEENERLERAERMRASVGGAITAGIDCDSASTSAAAAAAQHQPQPQPQPQPSSLTQNDSQHQTQPQLQPQLPPQLQGQLQPQLQPQLQTQLQPQIQPQPQLLPVSAPVPASVTAPGSLSAVSTSSEYMGGSAAIGPITPATTSSITAAVTASSTTSAVPMGNGVGVGVGVGGNVSMYANAQTAMALMGVALHSHQEQLIGGVAVKSEHSTTA
Turning to B3, the binding result in experiment [5] is listed as “binds”.
